What all share (conditions): 10 mM Tris-Cl pH 7.5, 50 mM NaCl, 1 mM DTT, 0.25 mg/ml BSA, 2 mM MgCl2, 0.025% Nonidet P-40, 5% glycerol; 28 nM nucleosome library; 10 min on ice then 30 min …; high values mean tight binding; double strand, one strand shown
One experiment deals with KLF4 + histone octamer. The experiment is described as follows: EMSA with sequencing. In general terms: Mobility shift assays separate free from complexed probe on a gel.
The subject of experiment [1] is SOX2 + histone octamer. Briefly: EMSA with sequencing.
Experiment [2] has as its system c-MYC + MAX + histone octamer. Briefly: EMSA with sequencing.
The test system of experiment [3] is OCT4 + histone octamer. The experiment is described as follows: Pioneer-seq (competitive nucleosome EMSA with sequencing).
Experiment [4] has as its system OCT4 + histone octamer. Briefly: EMSA with sequencing.
The test system of experiment [5] is SOX2 + histone octamer. Briefly: Pioneer-seq (competitive nucleosome EMSA with sequencing).

The other results are listed elsewhere or left out. For some of these results: At the low end of the ranking the order means little.

Take “GATGGACCCTATACGCGGCAGAGATTTACCAAATAATGTTGCCTGAAGGGAGGTCGTGGTGTGGACACAATTGGCCATCAGCTTTCCCTCCCAGCCTTTTGTCCCAACTCCTTCTCCTCCCTTTGTGTCTCCCTCTGTGTCTGCTTCTTGTATTGCCTCTGCATGACCATGCAGCCTTCTCCTTTCAAAGGTTGCTCTCAGAACATAATCTGCCAGTCGGATAGTGTTCC”: the binding signal (log2 relative supershift) in the experiment on KLF4 + histone octamer is 1.73; with SOX2 + histone octamer [1], 0.675; in experiment [2], 0.27; in the experiment with OCT4 + histone octamer [3], -0.673.
In the case of “GATGGACCCTATACGCGGCTAAGGAGGGGCTAGGGTGTGTCTTGGGGCAGAGCAAGAAAGAGACGTCCATCCACGTGGATAAAGACACACACAGACACACGATGGGCTTTGTCACACACAATGGTCTGTACTTTGTGACACACACCTCTACTCACCACACCCAGACACCGAAGGACACTCCACAGCCCAAGACGGAGACTAACACACCAGTGCCAGTCGGATAGTGTTCC”, the binding signal (log2 relative supershift) in the experiment on KLF4 + histone octamer was 2.52; in the experiment with OCT4 + histone octamer [4], 0.158; in experiment [2] it was 1.16; in the experiment on SOX2 + histone octamer [5] it was -0.205.
For the sequence “GATGGACCCTATACGCGGCATTCAACAGCAGAGAAGAATCCCAAAGCTTGTTGGGTCAGTTTTGGGGGACTGCATTTTCATGAACCAGAGCTGCATCCAGCAGGTTGGGGCCTGTATGCACCCTAGCCAGGATGGAGTGGGAAGGAAGTGCGCAATTCTGACTCCACAAACACCTTTGGTAAGTAGGAGGCTATTTCTACTCATAGATACTGCCAGTCGGATAGTGTTCC”, the binding signal (log2 relative supershift) was 1.16 in the experiment on KLF4 + histone octamer, 0.717 with SOX2 + histone octamer [1], 0.0594 in experiment [2] and -0.188 in the experiment on OCT4 + histone octamer [3].
On to “GATGGACCCTATACGCGGCTGGTTCATGTTCTTTATTGAACACCTTACATGGGTATGGACAGGGCCTATGGGTGGGGCAAGGCAGCAATGACAGCCTCAGTGAAGTCATGGCAAGTAGCATAGCCACCCATGTCAGAGGTTCGAACCTGTGGGGGAGAATCATCATCATCCATGTGGCCTGGGCTCCATCCTAACAATCCCCATCACCACTGCCAGTCGGATAGTGTTCC”, for which the binding signal (log2 relative supershift) in the experiment on KLF4 + histone octamer was 1.23; with SOX2 + histone octamer [1], 0.571; in experiment [2], 0.511; with OCT4 + histone octamer [3], -0.969.
For “GATGGACCCTATACGCGGCCTCCCACACACCCATGCACATGTACTCACACTAACACACGCACGCTCACACATGTACTGTCATACACACACGTACTCACACTCATGCACACACACACCCCTCACCCACAGGCACACCAAGAGCCCTGGGGGAGAAGAGTCTGAGAGGTTTCAGGCCCTGTTGCAGGATGTGTCTGCAGCCCCATTCTCTGTTGCCAGTCGGATAGTGTTCC”, the binding signal (log2 relative supershift) in the experiment with KLF4 + histone octamer is 2.2; with SOX2 + histone octamer [1], 0.925; in experiment [2] it was 0.674; in the experiment on OCT4 + histone octamer [3], -0.441.
Turning to “GATGGACCCTATACGCGGCATGTGATAGTATTGGAATGCTATGATTGTTAATGTTGTGTCAACTTGAATGTGCCACAGGGTGCCCAGATTGAACATTATTTGGGGGTGTGTCTGTGAGGTTGTTCCCGATGAGATTAGCATTTGAATCAGTGGACTCAGAAAAGTTTCCCTCCCCATGTGAGTGGGCATCACCCAATCCATTGAAAGCCTTGCCAGTCGGATAGTGTTCC”, the binding signal (log2 relative supershift) with KLF4 + histone octamer was 1.76; in the experiment with SOX2 + histone octamer [1] it was 1.5; in experiment [2], 0.641; in the experiment on OCT4 + histone octamer [3] it was -0.136.
For “GATGGACCCTATACGCGGCATGATTCTCGCCATCAGCAGGGAGAAGGAGCGCCTCCCCATGTGGGACCTGGAGAAACAGAGGGTGGAGGGAGCATAGAGAGTCTGTTCTAAGCTGCAAAGCAAAGGCCTGGCGACCTAGGAGACCATGGAGTTCCAGAAAGTGATAGTTATGCAGAGCGAATGGAGGGAATCAGCACGCAGCGACTTTACTGCCAGTCGGATAGTGTTCC”, the binding signal (log2 relative supershift) was 1.14 with KLF4 + histone octamer, 0.228 in the experiment on OCT4 + histone octamer [4], 0.602 in experiment [2] and -0.408 in the experiment with SOX2 + histone octamer [5].
Consider “GATGGACCCTATACGCGGCCTCCAACAGAAATCTCCACTCACAGGTGTCACAGCCCAAAGCTGTCTTTGTAATGGTGACCTCACCCTGGTATCACAGTGACTGTAAGGGAAAGAAAGCAGCTGCCACTTCCTGGTTCACTTTCAACACCAAGCTCTCCTGATTTTATGTGTTCATTCTTATTACTTTCTTTCCCTCTCACCCTACCATATTGCCAGTCGGATAGTGTTCC”, for which the binding signal (log2 relative supershift) in the experiment with KLF4 + histone octamer is 0.958; in the experiment with SOX2 + histone octamer [1] it was 0.797; in experiment [2], 0.171; in the experiment with OCT4 + histone octamer [3] it was -0.222.
Turning to “GATGGACCCTATACGCGGCGAAGACAGGGAAGAGAGGAGGGAGAGAAGGGTGACAGGGAGCTGGTTGAGGGAGGGGACACAGAGCAGGAGACAGAGGCCCCATGTGGATCAAAGGAGTGACAAGGGAGGGCCCATGCTCAGTGATATGAGAACAGCAAGAGGCAACAAACAAGATACAAAAGGATACACACTTCCATCCCATTCATGTACTGCCAGTCGGATAGTGTTCC”, the binding signal (log2 relative supershift) in the experiment with KLF4 + histone octamer was 2.09; in the experiment on SOX2 + histone octamer [1], 1.76; in experiment [2], 0.182; in the experiment on OCT4 + histone octamer [3], -0.974.
Regarding “GATGGACCCTATACGCGGCTTCTGTCCTTGTTCCTCGTCCCATCTGGAGCATTTCCAATTCTGGTTTTGCGGAGCAGCAGGTCTGAGCTTGTCCGGCGAGGGTGGGAGTTGGTCCCGGCGGAGATCCAGTGGGAAGAGCCGGCGGCTGCCCGGGCGTGAGTAGACCGAGAATCCTGCCCGATCCCCGCCCCTGGGCTGGTGTCGCCCTGGTGCCAGTCGGATAGTGTTCC”, the binding signal (log2 relative supershift) in the experiment with KLF4 + histone octamer is 1.28; in the experiment on SOX2 + histone octamer [1], 0.474; in experiment [2], 0.541; in the experiment on OCT4 + histone octamer [3], -1.16.
